Assay results: publication PMC7532997, “Cytotoxic Constituents of the Bark of Hypericum roeperianum towards Multidrug-Resistant Cancer Cells” (Evidence-based Complementary and Alternative Medicine : eCAM, 2020)

system: CEM/ADR5000 leukemia cells (P-gp-overexpressing); experiment: Resazurin reduction assay (RRA), 72 h; type: cell-based; settings: IC50 CEM/ADR5000 divided by IC50 CCRF-CEM
Excerpt: Cell lines used in this work included drug-sensitive and drug-resistant phenotypes of earlier reported origin. They were all provided by Prof. Dr. Thomas Efferth from his cell lines collection; they have being used in cytotoxicity screening by our team for a decade. These include two hematological cancer cell lines, namely, the drug-sensitive CCRF-CEM leukemia cell line and its multidrug-resistant P-gp-over-expressing subline CEM/ADR5000 cells and […] carcinoma cell lines, namely, U87.MG glioblastoma cell line and its EGFR-transfected U87.MGΔEGFR subline, HCT116 (p53^+/+) colon cancer cell line and its knockout clone HCT116 (p53^−/^−), and MDA-MB-231-pcDNA3 breast cancer cell line and its BCRP-transfected multidrug-resistant MDA-MB-231-BCRP clone 23 cell line, as well as the normal AML12 hepatocytes, used to compare with HepG2 liver cancer cells.
The RRA was applied to evaluate the cytotoxicity of botanicals, the isolated phytochemicals (1–5, 7, and 8), and doxorubicin on the cell growth as reported earlier. Cells treated with various samples at different concentrations were incubated for 72 h in humidified 5% CO2 atmosphere at 37°C. Cells were further coloured with resazurin and incubated for 1–2 h; the fluorescence was further measured with an Infinite M2000 Pro™ plate reader (Tecan, Crailsheim, Germany) at 544 nm as the excitation wavelength and 590 nm as the emission wavelength. The IC50 values represented the concentrations of the sample required to inhibit 50% of cell proliferation and were calculated from a calibration curve by linear regression using Microsoft Excel 2007 [29].

Compound | Degree of resistance
C[C@H]1C(=O)CC[C@@H]2[C@]1(C)CC[C@H]1[C@@]2(C)CC[C@@]2(C(=O)O)C3CC(C)(C)CC[C@]3(C)CC[C@]12C (stereo partly drawn) [Compound 1, trichadonic acid] | 1.26
COc1cccc2c(=O)c3cc(O)ccc3oc12 [Compound 3, 2-hydroxy-5-methoxyxanthone] | 3.15
O=c1c2cc(O)c(O)cc2oc2cc(O)cc(O)c12 [Compound 4, 1,3,6,7-tetrahydroxyxanthone] | 1.16
O=c1c2ccc(O)c(O)c2oc2cc(O)cc(O)c12 [Compound 5, 1,3,5,6-tetrahydroxyxanthone] | 1.00
COc1cc(C2Oc3ccc4c(=O)c5c(O)cc(O)cc5oc4c3OC2CO)cc(OC)c1O (stereo not drawn) [Compound 7, 3′-hydroxymethyl-2′-(4″-hydroxy-3″,5″-dimethoxyphenyl)-5′,6′:5,6-(6,8-dihydroxyxanthone)-1′,4′-dioxane] | 2.32
COc1cc(C2Oc3ccc4c(=O)c5ccccc5oc4c3OC2CO)cc(OC)c1O (stereo not drawn) [Compound 8, 3′-hydroxymethyl-2′-(4″-hydroxy-3″,5″-dimethoxyphenyl)-5′,6′:5,6-(xanthone)-1′,4′-dioxane] | 2.66
